Measured values taken from PubChem BioAssay AID504834 (National Center for Advancing Translational Sciences (NCATS), 2011).
The campaign covered roughly 320,000 compounds. About 22,000 (6.9%) were called active. Inconclusive results, whose numbers are uncertain, are shown with a selection of clear calls. The call rests on the fitted dose curve; in most records, active means well fitted inhibition curve with a large enough effect; inconclusive means small, poorly fitted or top-dose-only effect, or another doubt; inactive means no such curve, though single readings can be large or run the other way. Potencies beside an inconclusive call are fits to weak or partial responses and may not hold up.

assay: Primary qHTS for delayed death inhibitors of the malarial parasite plastid, 96 hour incubation; conditions: P. falciparum luciferase reporter growth; series mostly up to 28.7 µM
How it was run: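 Luminescence readout: decreased luciferase signal marks inhibited growth of reporter-expressing P. falciparum in infected red cells (2% hematocrit, 0.05% parasitemia final), exposed to compound two generations (96 h, 37 C, 5% CO2).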
Potency means the concentration at half of the fitted maximal effect.

Row | Structure (SMILES) | Potency
1 | COc1ccc(O)c(C(=O)c2cnc3c(c2)c(C)nn3CCO)c1 | inconclusive: 13.1 µM [inhibitor, partial curve, poor fit]
2 | CC1CCN(C(=O)Cn2cc(C(=O)c3ccco3)c3ccccc32)CC1 | active: 10.4 µM
3 | Cc1ccc(CNC(=O)C2CCCN(c3nc4ccccc4o3)C2)cc1 (stereo not drawn) | inactive
4 | CCOC(=O)C1CCN(S(=O)(=O)c2csc(C(N)=O)c2)CC1 | inconclusive: 10.4 µM [inhibitor, single point]
5 | Cc1cc(=O)[nH]c(-n2[nH]c3c(c2=O)CCCC3)n1 | inconclusive: 1.65 µM [inhibitor, full curve]
6 | O=C(Cn1cnc2ccccc21)N/N=C/C(Br)=C/c1ccccc1 | inconclusive: 10.4 µM [inhibitor, partial curve, poor fit]
7 | Cc1cc(=O)oc2cc(OCCSCCN3CCCCC3)ccc12 | inconclusive: 18.5 µM [inhibitor, single point]
8 | COc1ccc(N2CCN(C(=O)c3cc4c(s3)-c3ccccc3OC4)CC2)cc1 | inactive
9 | Cc1cc(C)c2nc(N3CCCC(C(=O)NC4CCCC4)C3)sc2c1 (stereo not drawn) | active: 5.22 µM
10 | CCN(CC)P(=O)(Nc1ccc([N+](=O)[O-])cc1)c1c(C)nn(CCC#N)c1NC(=O)c1ccc(Cl)cc1 (stereo not drawn) | inconclusive: 11.7 µM [inhibitor, single point]
11 | O=C(NC(C(=O)N/N=C/c1cc([N+](=O)[O-])ccc1O)c1n[nH]c(=O)c2ccccc12)c1ccccc1 (stereo not drawn) | inconclusive: 14.7 µM [inhibitor, single point]
12 | CC(=O)N1CCCc2cc(S(=O)(=O)CCC(=O)N3CCN(c4ccccc4)CC3)ccc21 | inconclusive: 18.5 µM [inhibitor, single point]
13 | Cc1ccc2cc3cc(C(=O)NCCCN4CCCC4=O)oc3nc2c1 | inconclusive: 18.5 µM [inhibitor, single point]
14 | Cc1oc(-c2ccccc2F)nc1CS(=O)CC(=O)NCCN1CCCCC1C (stereo not drawn) | inconclusive: 13.1 µM [inhibitor, single point]
15 | COc1ccc(CCCc2nnc(SCC(=O)Nc3ccc(OC)cc3)o2)cc1 | inconclusive: 14.7 µM [inhibitor, partial curve, poor fit]
16 | COc1ccc(CCNC(=O)c2cccc(S(=O)(=O)N3CCCCCC3)c2)cc1 | inconclusive: 18.5 µM [inhibitor, single point]
17 | CCNC(=O)NCCc1c[nH]c2ccc(Cl)cc12 | inconclusive: 18.5 µM [inhibitor, partial curve, poor fit]
18 | COc1ccc(-c2oc(NC(C)=O)c(C#N)c2-c2ccc(OC)cc2)cc1 | inconclusive: 20.8 µM [inhibitor, partial curve, poor fit]
19 | COc1ccc(C(c2c(C)[nH]n(-c3ccccc3)c2=O)c2c(C)[nH]n(-c3ccccc3)c2=O)cc1OC | inconclusive: 0.0828 µM [inhibitor, full curve, poor fit]
20 | COC(=O)c1ccc(NC(=O)Nc2ccc3c(c2)OCO3)cc1 | inconclusive: 6.57 µM [inhibitor, partial curve]
21 | COc1ccc(-n2nnnc2S(=O)(=O)CC(=O)N2CCCCC2)cc1 | inactive
22 | CCOC(=O)c1ccccc1NC(=O)CSc1nccn1C | inconclusive: 18.5 µM [inhibitor, single point]

Among those listed so far, seven contain an aryl methoxy group:
Row | Structure (SMILES) | Potency
1 | COc1ccc(O)c(C(=O)c2cnc3c(c2)c(C)nn3CCO)c1 | inconclusive: 13.1 µM [inhibitor, partial curve, poor fit]
8 | COc1ccc(N2CCN(C(=O)c3cc4c(s3)-c3ccccc3OC4)CC2)cc1 | inactive
15 | COc1ccc(CCCc2nnc(SCC(=O)Nc3ccc(OC)cc3)o2)cc1 | inconclusive: 14.7 µM [inhibitor, partial curve, poor fit]
16 | COc1ccc(CCNC(=O)c2cccc(S(=O)(=O)N3CCCCCC3)c2)cc1 | inconclusive: 18.5 µM [inhibitor, single point]
18 | COc1ccc(-c2oc(NC(C)=O)c(C#N)c2-c2ccc(OC)cc2)cc1 | inconclusive: 20.8 µM [inhibitor, partial curve, poor fit]
19 | COc1ccc(C(c2c(C)[nH]n(-c3ccccc3)c2=O)c2c(C)[nH]n(-c3ccccc3)c2=O)cc1OC | inconclusive: 0.0828 µM [inhibitor, full curve, poor fit]
21 | COc1ccc(-n2nnnc2S(=O)(=O)CC(=O)N2CCCCC2)cc1 | inactive

Further results follow:

Row | Structure (SMILES) | Potency
23 | COc1ccc(C2(c3ccc(OC)cc3)NC(=O)N(CC(=O)NCC(C)c3ccccc3)C2=O)cc1 (stereo not drawn) | active: 11.7 µM
24 | Nc1nc(NCc2ccccc2)nc(NCCO)c1[N+](=O)[O-] | inconclusive: 5.86 µM [inhibitor, partial curve]
25 | CCN(CC)c1ccc(C=Nc2ccccc2)c(O)c1 | inconclusive: 18.5 µM [inhibitor, single point]
26 | CN(C)[C@@H]1C(=O)C(C(N)=O)=C(O)[C@@]2(O)C(=O)C3=C(O)c4c(O)ccc(Cl)c4[C@@H](O)[C@H]3C[C@@H]12 | active: 0.37 µM
27 | Cc1cc2oc(C(=O)Nc3nonc3C)c(C)c2cc1Cl | active: 8.28 µM
28 | Cc1ccc(S(=O)(=O)C(C)C(=O)c2ccc3c(c2)OCCO3)cc1 (stereo not drawn) | inactive
29 | Cc1cccc(C(=O)Oc2ccc3ccc(O)cc3c2)c1 | inconclusive: 18.5 µM [inhibitor, single point]
30 | Cc1cc(NC(=O)CSc2nc(=O)n3cc(Cl)ccc3n2)no1 | inactive
31 | Cc1cc(NC(=O)c2ccccc2F)on1 | inactive
32 | CCCn1c(N)c(C(=O)CN(C)CC(=O)Nc2cccc(F)c2)c(=O)[nH]c1=O | inconclusive: 9.28 µM [inhibitor, single point]
33 | C[C@@H]1c2cccc(O)c2C(O)=C2C(=O)[C@@]3(O)C(O)=C(C(N)=O)C(=O)[C@@H](N(C)C)[C@@H]3[C@@H](O)[C@@H]21 | active: 1.51 µM
34 | CCC(Sc1nc2sc(C(=O)OC)c(C)c2c(=O)n1N)C(=O)NCC1CCCO1 (stereo not drawn) | active: 4.65 µM
35 | COCCNC(=O)c1cc(S(=O)(=O)N(C)c2ccccc2OC)ccc1C | inconclusive: 0.738 µM [inhibitor, full curve, poor fit]
36 | COc1ccc(CCNC(=O)c2ccc(OC)c(OC)c2)cc1OC | inactive
37 | NC(=O)N(N)c1nc(N2CCCC2)nc(N2CCCC2)n1 | inactive
38 | Cc1ccc(C)c(Nc2ncccc2C(=O)NCc2cccs2)c1 | active: 9.28 µM
39 | CCC(C)N(C(=O)CSc1ncnc2sccc12)C1CCS(=O)(=O)C1 (stereo not drawn) | inconclusive: 0.0657 µM [inhibitor, full curve, poor fit]
40 | CCC(C)[C@H](NC(=O)C1CC(=O)N(c2ccc(OC)cc2)C1)C(=O)NC1CCCC1 (stereo partly drawn) | inconclusive: 18.5 µM [inhibitor, single point]
41 | Cn1c(-c2ccc(F)cc2)cnc1NCc1ccccc1 | inconclusive: 18.5 µM [inhibitor, single point]
42 | COc1ccc(C2CC(O)(c3ccccc3)Oc3cc(OC)ccc32)cc1 (stereo not drawn) | inconclusive: 11.7 µM [inhibitor, partial curve]
43 | CC(C)c1ccc(CNc2ccc(N3CCOCC3)cc2)cc1 | inconclusive: 18.5 µM [inhibitor, partial curve, poor fit]
